Experiments:
[1] = general procedure: hybrid (solid and solution phase) peptide synthesis; psWang handle on resin for the C-terminal fragment; DIC/OxymaPure (SPPS); PyBOP/DIPEA (fragment coupling in solution); conditions: for crude HPLC purity: 254 nm
[2] = general procedure: hybrid (solid and solution phase) peptide synthesis; CTC resin; DIC/OxymaPure (SPPS); PyBOP/DIPEA (fragment coupling in solution); conditions: whole synthesis, on resin loading
[3] = general procedure: hybrid (solid and solution phase) peptide synthesis; CTC resin with psWang handle; DIC/OxymaPure (SPPS); PyBOP/DIPEA (fragment coupling in solution); conditions: whole synthesis, on resin loading

Row | Substance | crude HPLC purity ([1]; whole synthesis) | crude yield [2] | crude yield [3] | crude HPLC purity ([1]; late stage modification step) | final HPLC purity ([1]; purification step, HPLC)
1 | Boc-His-(2-15)-Gly-OH | 92% | 81% |  |  | 
2 | H-Gln-(18-31)-psWang | ca 85% |  | ca 50% |  | 
3 | Liraglutide |  |  |  | 71% | >99%
